Assay results published in US20240018262A1.
Results are given in words; binding and its absence hold for the method and conditions named. Some entries that bind do so weakly or less than the wild type.

Chains of the proteins cited; added tags and fusions are not shown. Residues count along the entry.
UniProt P51654, residues 25-559: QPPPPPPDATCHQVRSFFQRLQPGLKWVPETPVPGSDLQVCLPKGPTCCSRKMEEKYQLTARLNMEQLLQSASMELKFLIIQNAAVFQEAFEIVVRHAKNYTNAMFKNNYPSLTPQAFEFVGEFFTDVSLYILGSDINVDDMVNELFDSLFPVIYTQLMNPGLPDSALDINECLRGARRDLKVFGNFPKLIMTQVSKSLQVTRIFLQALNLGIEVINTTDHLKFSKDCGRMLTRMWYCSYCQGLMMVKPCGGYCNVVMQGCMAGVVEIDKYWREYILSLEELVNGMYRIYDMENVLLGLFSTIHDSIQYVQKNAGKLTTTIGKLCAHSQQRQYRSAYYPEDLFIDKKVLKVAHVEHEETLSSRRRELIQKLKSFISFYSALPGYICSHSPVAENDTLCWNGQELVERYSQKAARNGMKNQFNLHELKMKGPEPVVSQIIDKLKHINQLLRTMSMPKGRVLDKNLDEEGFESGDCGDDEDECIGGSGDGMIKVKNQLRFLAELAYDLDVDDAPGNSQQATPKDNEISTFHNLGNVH

B1: 1A8 antibody (antibody, V domains shown)
VH: QVQLQQPGSELVRPGASVKLSCKASGYTFTSYWMHWVKQRHGQGLEWIGNIYPGSGSTNYDEKFKSKGTLTVDTSSRTAYMHLSSLTSEDSAVYYCTRGHYDYAMDYWGQGTSVTVSS
VL: DIVMTQSPSSLSASLGDTITITCHASQNINVWLSWYQQKPGNIPKLLIYKTSNLHTGVPSRFSGSGSGTGFTLTISSLQPEDIATYYCQQGQSYPWTFGGGTKLEIK
B2: 8B2 antibody (antibody, V domains shown)
VH: QVQLQQPGAELVKPGASVKMSCKASGYTFTSYNMHWVKQTPGQGLEWIGAIYPGNGYTSYNQKFKGKATLTADKSSSTAYMQLSSLTSEDSAVYYCARGGGPFAYWGQGTLVTVSA
VL: DIVMTQSHKFMSTSVGDRVSITCKASQDVGTAVAWYQQKPGQSPKLLIYWPSTRHTGVPDRFTGSGSGTDFTLTISNVQSEDLADYFCQQYSSYPFTFGSGTKLEIK
B3: 10E9 antibody (antibody, V domains shown)
VH: EVQLEESGTVLARPGASVKMSCKASGYTFTSYWMHWIKQRPGQGLEWIGAIYPGNSDTSYNQKFKGKAKLTAVTSTSTAYMELSSLTNEDSAVYYCTRGEYDYVLAYWGQGTLVTVSA
VL: DIVMTQSPATLSVTPGDSVSLSCRASQSISNNLHWYQQKSHESPRLLIKFASQSISGIPSRFSGSGSGTDFTLSINSVETEDFGMYFCQQSNSWPHMYTFGGGTKLEIK
B4: 7C6 antibody (antibody, V domains shown)
VH: QVQLQQPGAELVKPGASVKLSCKASGYTFTTYYMYWVKQRPGQGLEWIGEINPSNGGTNFNEKFKSKATLTVDKSSSTAYMQLSSLTSEDSAVYYCTTFAYWGQGTLVTVSA
VL: DIVMTQSPSSLSASLGGKVTITCKASQDINKYIVWYQHKPGKGPRLLIHYTSILQPGIPSRFSGSGSGRDYSFSISNLEPEDIATYYCLQYDNLWTFGGGTKLEIK
B5: 5E11 antibody (antibody, V domains shown)
VH: QVQLKQSGAELMKPGASVKISCKATGYTFSRYWIEWVKQRPGHGLEWIGEILPGSGSTSYNEKFKGKATFTADTSSNTAYMQLSSLTSEDSAVYYCARSARATYYFDYWGQGTTLTVSS
VL: DIQMTQTTSSLSASLGDRVTISCWASQDISNYLNWYQQKPDGTVKLLIYYTSTLHSGVPSRFSGSGSGTDYSLTISNLEQEDIATYFCQQGNALPYTFGGGTKLEIK

The binders below were run against GPC3 protein (Acrobiosystems, cat #GP3-H52H4) (UniProt P51654) (assay: hybridoma screening ELISA on GPC3).

| binding | Binder |
| --- | --- |
| binds | B1 |
| binds | B2 |
| binds | B3 |
| binds | B4 |
| binds | B5 |

The binders below were run against GPC3 protein (Acrobiosystems, cat #GP3-H52H4) (UniProt P51654) (assay: ELISA on coated GPC3 protein).

| binding | Binder |
| --- | --- |
| binds | B1 |
| binds | B2 |
| binds | B3 |
| binds | B4 |
| binds | B5 |
